No constants are given. Whether binding was seen depends on the method and setting. Binding seen in cells or lysates may run through a third protein. A result given as binding can be weak or reduced; the word gives no strength.
Key:
Test in all cases: co-IP; HEK-293T co-transfected with STAT5 and DUSP4 plasmids; 10 ng/ml hIFNbeta and 25 uM pervanadate for 30 m before lysis; SDS-free RIPA buffer (50 mM Tris-HCl, 0.25% sodium deoxycholate, 150 mM NaCl, 0.1% NP-40, 1 mM EDTA); Flag-STAT5 precipitated on Anti-Flag M2 affinity gel at 4°C for 3 h; DUSP4 detected by western blot
[1] = molecular target: Flag-tagged STAT5 deletion mutant lacking the DNA-binding domain (mouse) (UniProt P42230)
[2] = molecular target: Flag-tagged STAT5 deletion mutant lacking the coiled-coil domain (mouse) (UniProt P42230)
[3] = molecular target: Flag-tagged STAT5 deletion mutant lacking the transcription activation domain (mouse) (UniProt P42230)

Protein sequences, listed by entry. Tags and fused reporters are not part of them. Lines headed by an entry give the natural chain unless they say otherwise; changes in a name come on top.
UniProt P42230: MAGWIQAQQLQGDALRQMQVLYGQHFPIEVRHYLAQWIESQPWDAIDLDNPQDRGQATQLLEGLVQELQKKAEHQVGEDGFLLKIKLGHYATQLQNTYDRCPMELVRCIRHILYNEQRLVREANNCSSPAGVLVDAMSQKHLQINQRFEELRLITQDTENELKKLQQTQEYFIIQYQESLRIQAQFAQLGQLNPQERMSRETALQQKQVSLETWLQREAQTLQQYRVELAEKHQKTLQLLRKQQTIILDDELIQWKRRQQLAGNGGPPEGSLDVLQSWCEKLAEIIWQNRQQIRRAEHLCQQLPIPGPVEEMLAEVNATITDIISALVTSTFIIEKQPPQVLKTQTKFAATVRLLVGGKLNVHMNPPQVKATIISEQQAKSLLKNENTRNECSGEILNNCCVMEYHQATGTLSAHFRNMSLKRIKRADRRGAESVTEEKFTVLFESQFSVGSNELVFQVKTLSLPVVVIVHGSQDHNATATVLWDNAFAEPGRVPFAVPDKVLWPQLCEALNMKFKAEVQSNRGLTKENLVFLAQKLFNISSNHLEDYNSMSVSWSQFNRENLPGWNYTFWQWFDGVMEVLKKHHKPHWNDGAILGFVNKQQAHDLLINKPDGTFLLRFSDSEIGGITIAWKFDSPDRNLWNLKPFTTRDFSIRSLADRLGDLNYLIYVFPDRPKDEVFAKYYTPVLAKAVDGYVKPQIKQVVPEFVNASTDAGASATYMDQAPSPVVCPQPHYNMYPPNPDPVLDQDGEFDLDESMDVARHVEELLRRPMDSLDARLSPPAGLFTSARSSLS

Measured: binding

B1: DUSP4-PD (phosphatase-dead mutant DUSP4, C284S) (enzyme, UniProt Q8BFV3 1-398)
chain: MVTMEELREMDCSVLKRLMNRDENGGGGSAGGNGSGSHGALGLLSGGKCLLLDCRPFLAHSAGYIRGSVNVRCNTIVRRRAKGSVSLEQILPAEEEVRARLRSGLYSAVIVYDERSPRAESLREDSTVSLVVQALRRNAERTDICLLKGGYERFSSEYPEFCSKTKALAAIPPPVPPSTNESLDLGCSSCGTPLHDQGGPVEILPFLYLGSAYHAARRDMLDALGITALLNVSSDCPNHFEGHYQYKCIPVEDNHKADISSWFMEAIEYIDAVKDCRGRVLVHSQAGISRSATICLAYLMMKKRVRLEEAFEFVKQRRSIISPNFSFMGQLLQFESQVLTTSCAAEAASPSGPLRERGKATPTPTSQFVFSFPVSVGVHAAPSNLPYLHSPITTSPSC
binds: [1] | [2] | [3]
